Results are given in words; binding and its absence hold for the method and conditions named. Some results given as binding are weak or reduced against the parent protein; the word gives no strength. Values belong to the binder of their own block, whether it stands above or below them.
What was measured:
Experiment in all cases: SPR
[1] = target: T1, Fc tagged human PDL1 (human, UniProt Q9NZQ7 19-239)
T1 construct: Bought (Sino Biological, cat. 10084-H02H); captured on the SPR chip; also called PDL1-Fc chimeric protein

Protein sequences, listed by entry. Tags and fused reporters are not part of them. Lines headed by an entry give the natural chain unless they say otherwise; changes in a name come on top.
UniProt Q9NZQ7: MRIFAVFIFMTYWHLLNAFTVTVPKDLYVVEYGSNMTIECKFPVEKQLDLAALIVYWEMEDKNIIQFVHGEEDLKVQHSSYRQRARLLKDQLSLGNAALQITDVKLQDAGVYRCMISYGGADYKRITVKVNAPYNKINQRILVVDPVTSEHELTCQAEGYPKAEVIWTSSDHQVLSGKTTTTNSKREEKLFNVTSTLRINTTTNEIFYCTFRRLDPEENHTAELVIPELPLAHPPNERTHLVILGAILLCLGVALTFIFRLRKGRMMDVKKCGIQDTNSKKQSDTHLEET
UniProt Q07011: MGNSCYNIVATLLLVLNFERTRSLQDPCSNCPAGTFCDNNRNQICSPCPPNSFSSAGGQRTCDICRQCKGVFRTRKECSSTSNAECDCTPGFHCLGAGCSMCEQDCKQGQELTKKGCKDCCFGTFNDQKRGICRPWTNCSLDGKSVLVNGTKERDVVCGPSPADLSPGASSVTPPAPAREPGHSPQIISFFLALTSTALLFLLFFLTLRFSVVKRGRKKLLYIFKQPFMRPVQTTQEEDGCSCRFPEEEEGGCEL

[2] = target: T2, Fc tagged human CD137 (human, UniProt Q07011 24-186)
T2 construct: also called CD137-Fc chimeric protein

[3] = target: T3, cynomolgus PDL1-Fc chimeric protein (cynomolgus monkey, UniProt G7PSE7 19-239)
T3 construct: PDL1-Fc chimeric protein from different species captured on the chip
Experimental: Affinity to PDL1 of the different species was determined by SPR measurements using a Biacore T200 device (GE Healthcare). An antibody specific for the Fc region of human IgGs was immobilized on a sensor chip (CM5 sensor chip, GE Healthcare) by amine-coupling. For all formats, with the exception of the Fc containing Morrison formats, PDL1-Fc chimeric protein from different species were captured by the immobilized antibody.
Three-fold serial dilutions of the molecules specific for PDL1 (0.12-90 nM) were injected into the flow cells for three minutes and dissociation was monitored for 10 minutes. After each injection cycle, surfaces were regenerated with one injection of a 3 M MgCl₂ solution. The apparent dissociation (kd) and association (kₐ) rate constants and the apparent dissociation equilibrium constant (KD) were calculated using one-to-one Langmuir binding model. Affinity to CD137 of the different species was determined using the identical setup as for PDL1 with the exception that CD137-Fc chimeric protein from different species were captured by the immobilized antibody.

binding [1]: binds | binding [2]: binds
B1: PRO1482 (other)
chain: DIQMTQSPSSLSASVGDRVTITCQASQSINNVLAWYQQKPGKAPKLLIYRASTLASGVPSRFSGSGSGTDFTLTISSLQPEDFATYYCQSSYGNYGDFGCGTKVTVLGGGGGSEVQLVESGGGLVQPGGSLRLSCAASGFSFNSDYWIYWVRQAPGKGLEWIASIYGGSSGNTQYASWAQGRFTISRDNSKNTVYLQMNSLRAEDTAVYFCARGYVDYGGATDLWGQGTLVTVSSGGGGSGGGGSGGGGSGGGGSIQMTQSPASLSASVGDRVTITCQASQSIGTYLAWYQQKPGKPPKLLIYRAFILASGVPSRFSGSGSGTDFTLTISSLQPEDFATYYCQSNFYSDSTTIGPNAFGTGTKVTVLGGGGGSEVQLVESGGGLVQPGGSLRLSCAASGFSFSNSYWICWVRQAPGKCLEWIGCTFVGSSDSTYYANWAKGRFTISRDNSKNTVYLQMNSLRAEDTAVYYCARHPSDAVYGYANNLWGQGTLVTVSSGGGGSGGGGSIQMTQSPSSLSASVGDRVTITCQSSESVYSNNQLSWYQQKPGQPPKLLIYDASDLASGVPSRFSGSGSGTDFTLTISSLQPEDFATYYCAGGFSSSSDTAFGGGTKLTVLGGGGGSGGGGSGGGGSGGGGSEVQLVESGGGLVQPGGSLRLSCAASGFSLSSNAMGWVRQAPGKGLEYIGIISVGGFTYYASWAKGRFTISRDNSKNTVYLQMNSLRAEDTATYFCARDRHGGDSSGAFYLWGQGTLVTVSS
notes: trispecific scDb-scFv; also called 37-20-B03 sc09.1 scDb-i/38-02-A04 sc13 scDb-o/19-01-H04 sc03 scFv

binding [3]: binds
B2: PRO830 (scFv)
scFv: DIQMTQSPSSLSASVGDRVTITCQASQSINDYLAWYQQKPGKAPKLLIYKASTLASGVPSRFSGSGSGTDFTLTISSLQPEDFATYYCQQGYIITDIDNVFGTGTKVTVLGGGGGSGGGGSGGGGSGGGGSQVQLQESGPGLVKPSETLSLTCKVSGFSFSSGYDMCWIRQPPGKGLEWIGCVVAGSVDITYYASWAKGRVTISVDSSKNQFSLKLSSVTAADTAVYYCARKDAYSDAFNLWGQGTLVTVSS
notes: anti-PDL1 scFv; also called 33-03-G02 sc01 scFv; 33-03-G02 CDR

binding [3]: binds
B3: PRO997 (scFv)
scFv: DIQMTQSPSSLSASVGDRVTITCQASQSIGTYLAWYQQKPGKAPKLLIYRAFILASGVPSRFSGSGSGTDFTLTISSLQPEDFATYYCQSNFYSDSTTIGPNAFGTGTKVTVLGGGGGSGGGGSGGGGSGGGGSQVQLQESGPGLVKPSETLSLTCKVSGFSFNSDYWIYWIRQPPGKGLEWIGSIYGGSSGNTQYASWAQGRVTISVDSSKNQFSLKLSSVTAADTAVYYCARGYVDYGGATDLWGQGTLVTVSS
notes: also called 37-20-B03 sc01 scFv; 37-20-B03 CDR

— patent publication US20230192897A1 (NUMAB THERAPEUTICS, published 2023)
